Assay results as given in patent publication US8034928B2, “Fluorescence assays with improved sensitivity” (Wisconsin Alumni Research Foundation, priority 2003, dated 2011).
The name of at least one read-out is uncertain.

Test system: pig liver esterase (PLE)
Experiment: Activation of latent fluorophores by pig liver esterase (kinetic parameters, fluorescence increase)
Assay type: biochemical
Conditions: PLE 2.5 μg/mL, 1×PBS, double reciprocal plot

| Compound | kcat/Km (excitation 591 nm, emission 628 nm) [M⁻¹ s⁻¹] | kcat/Km (excitation 496 nm, emission 520 nm) [M⁻¹ s⁻¹] |
| --- | --- | --- |
| CC(=O)Oc1cc(C)cc(C)c1C(C)(C)CC(=O)/N=c1/cc2oc3cc(NC(=O)CC(C)(C)c4c(C)cc(C)cc4OC(C)=O)ccc3nc-2c2ccccc12 [Compound E] | 200000 | – |
| CC(=O)Oc1cc(C)cc(C)c1C(C)(C)CC(=O)Nc1ccc2c(c1)Oc1cc(NC(=O)N3CCOCC3)ccc1C21OC(=O)c2ccccc21 (centres unmarked) [Compound D] | – | 700000 |
